33 targets from the supplement of paper PMC10849652 can be followed below.

Sequences of proteins named here, by UniProt entry; tags and fusion partners are left off. A change or cut given only in a name is not applied to a line headed by its entry.
UniProt Q86SQ7: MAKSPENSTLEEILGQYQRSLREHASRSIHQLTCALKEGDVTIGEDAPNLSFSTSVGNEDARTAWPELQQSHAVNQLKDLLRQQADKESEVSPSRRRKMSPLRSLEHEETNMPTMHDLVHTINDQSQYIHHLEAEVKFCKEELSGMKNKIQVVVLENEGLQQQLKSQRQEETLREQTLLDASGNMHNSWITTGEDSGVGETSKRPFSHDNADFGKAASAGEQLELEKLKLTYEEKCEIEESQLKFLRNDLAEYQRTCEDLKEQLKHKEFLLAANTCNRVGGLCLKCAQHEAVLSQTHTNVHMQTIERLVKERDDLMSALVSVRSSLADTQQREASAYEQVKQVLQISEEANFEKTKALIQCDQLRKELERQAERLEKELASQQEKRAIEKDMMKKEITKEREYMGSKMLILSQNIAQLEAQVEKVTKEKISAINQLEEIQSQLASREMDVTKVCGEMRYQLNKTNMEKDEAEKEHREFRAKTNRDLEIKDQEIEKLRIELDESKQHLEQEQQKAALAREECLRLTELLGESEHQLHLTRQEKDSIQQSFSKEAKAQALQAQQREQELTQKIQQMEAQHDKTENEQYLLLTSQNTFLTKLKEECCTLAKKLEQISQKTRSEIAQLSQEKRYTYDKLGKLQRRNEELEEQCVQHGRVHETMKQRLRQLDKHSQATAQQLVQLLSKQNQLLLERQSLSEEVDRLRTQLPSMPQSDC
UniProt Q96KG9: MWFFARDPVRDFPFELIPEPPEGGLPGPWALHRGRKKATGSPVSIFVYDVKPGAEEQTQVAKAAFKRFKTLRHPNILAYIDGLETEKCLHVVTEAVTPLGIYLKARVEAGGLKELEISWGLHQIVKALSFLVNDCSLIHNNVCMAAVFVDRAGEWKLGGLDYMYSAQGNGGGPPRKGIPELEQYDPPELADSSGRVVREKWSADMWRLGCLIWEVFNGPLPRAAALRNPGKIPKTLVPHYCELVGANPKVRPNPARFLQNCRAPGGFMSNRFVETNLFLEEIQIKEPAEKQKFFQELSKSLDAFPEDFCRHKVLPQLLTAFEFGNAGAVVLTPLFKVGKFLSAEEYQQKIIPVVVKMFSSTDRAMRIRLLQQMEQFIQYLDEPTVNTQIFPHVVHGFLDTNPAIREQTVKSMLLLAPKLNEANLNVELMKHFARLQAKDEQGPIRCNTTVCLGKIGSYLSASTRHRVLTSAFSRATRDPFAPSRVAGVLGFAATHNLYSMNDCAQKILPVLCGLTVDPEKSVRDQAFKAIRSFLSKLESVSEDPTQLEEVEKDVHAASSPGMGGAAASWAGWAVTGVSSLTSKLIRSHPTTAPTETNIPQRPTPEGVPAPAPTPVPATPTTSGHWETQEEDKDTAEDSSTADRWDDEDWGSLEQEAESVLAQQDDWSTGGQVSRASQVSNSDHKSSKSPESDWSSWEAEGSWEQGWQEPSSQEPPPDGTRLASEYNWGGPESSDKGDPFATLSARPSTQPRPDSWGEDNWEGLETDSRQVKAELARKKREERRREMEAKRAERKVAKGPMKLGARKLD
UniProt O14828: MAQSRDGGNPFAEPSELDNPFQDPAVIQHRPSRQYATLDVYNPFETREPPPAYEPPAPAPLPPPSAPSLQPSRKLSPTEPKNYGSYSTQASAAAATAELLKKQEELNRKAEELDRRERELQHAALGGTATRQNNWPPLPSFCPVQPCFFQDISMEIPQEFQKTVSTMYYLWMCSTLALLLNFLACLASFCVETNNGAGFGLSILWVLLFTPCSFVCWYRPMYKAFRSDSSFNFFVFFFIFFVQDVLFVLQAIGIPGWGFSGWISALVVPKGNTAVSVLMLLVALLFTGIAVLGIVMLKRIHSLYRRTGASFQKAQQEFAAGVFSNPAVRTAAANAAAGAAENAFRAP
UniProt O60613, whole entry, looked up: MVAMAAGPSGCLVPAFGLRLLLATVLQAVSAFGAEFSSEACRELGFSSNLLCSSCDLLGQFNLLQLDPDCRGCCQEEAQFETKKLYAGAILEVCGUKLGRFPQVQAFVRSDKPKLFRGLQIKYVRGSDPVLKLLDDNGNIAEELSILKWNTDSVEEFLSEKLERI
UniProt Q8WU76: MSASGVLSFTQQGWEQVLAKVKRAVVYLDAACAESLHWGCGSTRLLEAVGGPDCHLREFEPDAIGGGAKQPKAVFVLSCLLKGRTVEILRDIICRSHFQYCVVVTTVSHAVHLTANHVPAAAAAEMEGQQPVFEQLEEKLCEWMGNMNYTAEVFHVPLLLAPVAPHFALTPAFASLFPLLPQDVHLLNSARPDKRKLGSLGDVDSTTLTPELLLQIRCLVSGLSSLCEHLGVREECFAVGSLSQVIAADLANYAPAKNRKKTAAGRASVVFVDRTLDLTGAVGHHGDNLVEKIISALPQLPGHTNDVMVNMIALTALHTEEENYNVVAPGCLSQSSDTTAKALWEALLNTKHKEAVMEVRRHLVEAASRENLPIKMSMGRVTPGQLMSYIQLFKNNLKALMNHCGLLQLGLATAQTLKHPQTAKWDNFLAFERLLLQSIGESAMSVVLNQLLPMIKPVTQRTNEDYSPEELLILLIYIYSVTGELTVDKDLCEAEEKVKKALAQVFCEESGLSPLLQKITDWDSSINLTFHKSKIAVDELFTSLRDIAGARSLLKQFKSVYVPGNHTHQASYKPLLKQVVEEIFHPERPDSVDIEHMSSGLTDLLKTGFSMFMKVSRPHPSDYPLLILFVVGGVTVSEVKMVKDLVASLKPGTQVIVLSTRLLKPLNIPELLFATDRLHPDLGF
UniProt Q9NVA2: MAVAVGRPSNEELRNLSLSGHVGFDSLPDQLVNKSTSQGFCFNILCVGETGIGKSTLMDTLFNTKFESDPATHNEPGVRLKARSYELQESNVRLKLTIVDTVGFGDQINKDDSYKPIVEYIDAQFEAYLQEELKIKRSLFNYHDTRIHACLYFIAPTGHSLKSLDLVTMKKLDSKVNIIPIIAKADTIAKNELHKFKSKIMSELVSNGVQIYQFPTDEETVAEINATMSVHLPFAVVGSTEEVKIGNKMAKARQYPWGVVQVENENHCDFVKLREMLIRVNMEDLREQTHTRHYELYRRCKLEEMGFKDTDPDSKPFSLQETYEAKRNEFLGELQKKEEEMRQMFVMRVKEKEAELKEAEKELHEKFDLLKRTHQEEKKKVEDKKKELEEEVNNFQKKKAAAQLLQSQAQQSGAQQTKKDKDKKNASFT
UniProt Q9UHD8: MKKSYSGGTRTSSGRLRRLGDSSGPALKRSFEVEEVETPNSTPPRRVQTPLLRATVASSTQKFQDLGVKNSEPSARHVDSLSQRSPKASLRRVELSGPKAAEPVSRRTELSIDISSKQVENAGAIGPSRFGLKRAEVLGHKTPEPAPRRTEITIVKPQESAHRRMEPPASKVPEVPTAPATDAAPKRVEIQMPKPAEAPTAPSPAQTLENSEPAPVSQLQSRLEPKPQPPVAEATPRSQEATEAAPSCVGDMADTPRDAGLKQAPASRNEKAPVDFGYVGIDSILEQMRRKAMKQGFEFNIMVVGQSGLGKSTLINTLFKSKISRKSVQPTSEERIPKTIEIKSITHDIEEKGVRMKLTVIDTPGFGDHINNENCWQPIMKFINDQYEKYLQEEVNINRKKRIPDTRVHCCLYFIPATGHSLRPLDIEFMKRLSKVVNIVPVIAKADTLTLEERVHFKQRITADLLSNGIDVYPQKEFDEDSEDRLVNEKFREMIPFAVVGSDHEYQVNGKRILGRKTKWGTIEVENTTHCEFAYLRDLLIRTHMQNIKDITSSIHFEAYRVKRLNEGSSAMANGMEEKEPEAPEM
UniProt Q9NPR2: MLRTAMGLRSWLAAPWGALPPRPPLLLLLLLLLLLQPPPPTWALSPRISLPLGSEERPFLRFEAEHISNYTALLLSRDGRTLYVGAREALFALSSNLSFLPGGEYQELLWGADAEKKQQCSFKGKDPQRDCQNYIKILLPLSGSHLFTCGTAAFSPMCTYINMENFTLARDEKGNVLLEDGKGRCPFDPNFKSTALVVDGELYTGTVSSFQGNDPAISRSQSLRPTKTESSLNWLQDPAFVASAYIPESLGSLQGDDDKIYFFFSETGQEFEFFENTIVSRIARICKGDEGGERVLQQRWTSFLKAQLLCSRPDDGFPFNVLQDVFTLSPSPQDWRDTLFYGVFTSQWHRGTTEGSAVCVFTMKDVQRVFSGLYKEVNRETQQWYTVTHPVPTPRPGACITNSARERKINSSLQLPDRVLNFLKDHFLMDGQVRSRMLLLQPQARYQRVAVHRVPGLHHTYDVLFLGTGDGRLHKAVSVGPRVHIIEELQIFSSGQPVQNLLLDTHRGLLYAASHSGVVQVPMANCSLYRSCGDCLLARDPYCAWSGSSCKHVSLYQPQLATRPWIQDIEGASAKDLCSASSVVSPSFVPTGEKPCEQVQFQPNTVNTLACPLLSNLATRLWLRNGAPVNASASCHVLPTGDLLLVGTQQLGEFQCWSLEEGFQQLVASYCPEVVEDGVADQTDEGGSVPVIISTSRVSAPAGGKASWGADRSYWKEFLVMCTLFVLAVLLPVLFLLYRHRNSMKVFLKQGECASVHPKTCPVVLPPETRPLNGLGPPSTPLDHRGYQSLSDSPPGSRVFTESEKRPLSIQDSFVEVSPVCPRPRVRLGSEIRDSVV
UniProt Q9BRK5: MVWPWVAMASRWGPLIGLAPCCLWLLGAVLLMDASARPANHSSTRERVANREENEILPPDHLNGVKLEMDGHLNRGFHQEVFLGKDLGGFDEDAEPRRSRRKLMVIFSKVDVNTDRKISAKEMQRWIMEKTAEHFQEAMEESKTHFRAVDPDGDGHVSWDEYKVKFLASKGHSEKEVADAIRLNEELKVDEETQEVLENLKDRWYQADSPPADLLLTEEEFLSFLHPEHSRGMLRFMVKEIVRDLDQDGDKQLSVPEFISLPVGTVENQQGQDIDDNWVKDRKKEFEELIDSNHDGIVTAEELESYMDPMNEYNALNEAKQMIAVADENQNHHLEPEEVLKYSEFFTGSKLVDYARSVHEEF
UniProt P61619, whole entry, looked up: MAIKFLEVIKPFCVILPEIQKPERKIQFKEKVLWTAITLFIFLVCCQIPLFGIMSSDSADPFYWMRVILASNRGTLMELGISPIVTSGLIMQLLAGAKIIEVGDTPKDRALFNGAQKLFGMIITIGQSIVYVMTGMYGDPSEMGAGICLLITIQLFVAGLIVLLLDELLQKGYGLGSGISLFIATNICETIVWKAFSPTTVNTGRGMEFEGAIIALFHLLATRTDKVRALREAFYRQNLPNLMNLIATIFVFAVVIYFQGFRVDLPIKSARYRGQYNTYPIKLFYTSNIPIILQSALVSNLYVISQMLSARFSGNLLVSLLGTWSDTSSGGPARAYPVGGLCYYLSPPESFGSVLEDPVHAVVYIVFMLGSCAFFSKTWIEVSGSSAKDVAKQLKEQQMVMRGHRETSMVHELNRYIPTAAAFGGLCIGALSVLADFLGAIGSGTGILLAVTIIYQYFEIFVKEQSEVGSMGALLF
UniProt P53992: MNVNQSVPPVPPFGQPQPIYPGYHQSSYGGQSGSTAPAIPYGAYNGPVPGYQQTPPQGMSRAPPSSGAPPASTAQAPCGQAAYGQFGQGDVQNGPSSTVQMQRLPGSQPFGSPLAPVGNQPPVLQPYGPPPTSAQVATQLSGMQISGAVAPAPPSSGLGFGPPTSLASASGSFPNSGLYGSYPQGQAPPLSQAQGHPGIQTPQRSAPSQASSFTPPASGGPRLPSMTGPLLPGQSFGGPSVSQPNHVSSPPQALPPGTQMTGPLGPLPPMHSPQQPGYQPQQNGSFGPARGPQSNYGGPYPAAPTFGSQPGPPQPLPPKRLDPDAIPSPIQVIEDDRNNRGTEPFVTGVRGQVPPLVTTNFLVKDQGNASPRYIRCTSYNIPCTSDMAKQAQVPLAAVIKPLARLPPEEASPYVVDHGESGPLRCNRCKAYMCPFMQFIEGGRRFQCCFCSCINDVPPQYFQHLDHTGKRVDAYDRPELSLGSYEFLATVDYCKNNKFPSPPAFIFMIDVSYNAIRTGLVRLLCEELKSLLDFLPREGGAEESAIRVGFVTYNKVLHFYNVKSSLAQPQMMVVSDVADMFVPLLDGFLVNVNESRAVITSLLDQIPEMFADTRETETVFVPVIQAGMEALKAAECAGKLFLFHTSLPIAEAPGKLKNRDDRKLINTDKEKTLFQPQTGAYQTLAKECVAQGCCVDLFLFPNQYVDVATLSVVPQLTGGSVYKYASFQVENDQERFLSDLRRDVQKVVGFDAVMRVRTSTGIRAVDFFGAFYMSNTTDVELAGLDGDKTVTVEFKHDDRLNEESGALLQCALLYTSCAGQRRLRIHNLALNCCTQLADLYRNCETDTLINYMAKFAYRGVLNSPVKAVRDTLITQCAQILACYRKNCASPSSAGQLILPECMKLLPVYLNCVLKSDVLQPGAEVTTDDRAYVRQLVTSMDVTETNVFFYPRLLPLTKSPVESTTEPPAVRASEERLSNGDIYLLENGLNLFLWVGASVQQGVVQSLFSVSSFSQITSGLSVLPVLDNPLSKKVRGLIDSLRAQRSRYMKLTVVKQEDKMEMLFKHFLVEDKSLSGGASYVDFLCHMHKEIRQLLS

The other results are listed elsewhere or left out.

Compound in the first assay: C1=CC(=CC=C1C2=NC3=C(N2)C=C(C=C3)C(=O)N)OC4=CC=C(C=C4)Cl
Kind of assay: log2 fold change, soluble protein after heating vs DMSO (PISA); higher = thermal stabilisation; K562 lysate, 10 uM; active = over 0.2 and 3.5 SD of the protein, either way, in both replicates (recomputed). A digest of the protocol: (§1)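 Thermal stability, expressed as log-two fold change relative to solvent controls, is given from duplicates. Crude K562 extract in PBS pH 7.4 with 1 mM MgCl2, at 1 mg/mL protein, was treated with 10 μM compound for 30 min and heated in aliquots for 3 min across 48°C-58°C. After pooling, adjustment to 0.5% NP-40 at 4°C and centrifugation at 21,000xg for 90 min, supernatant protein was measured by TMTpro 16plex LC-MS/MS with channel sums equalised.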
Consider SCRN3 (UniProt Q0VDG4), for which the log2 fold change is inactive: 0.019.
The same measure, in the same setting: in the case of SDSL (UniProt Q96GA7) it was inactive: 0.002; in that of SEC63 (UniProt Q9UGP8), inactive: 0.032.
Regarding SARG (UniProt Q9BW04), the log2 fold change is inactive: 0.055.
SAAL1 (UniProt Q96ER3): the log2 fold change was inactive: -0.029.
Turning to SAR1B (UniProt Q9Y6B6), the log2 fold change was inactive: 0.042.
For the target SAMSN1 (UniProt Q9NSI8), the log2 fold change is inactive: -0.011.
In the case of SDCCAG8 (UniProt Q86SQ7), the log2 fold change was inactive: -0.009.
Take SCYL1 (UniProt Q96KG9): the log2 fold change is inactive: 0.088.
Still for that read-out and setting: the figure for SDAD1 (UniProt Q9NVU7) is inactive: -0.029; for SEPTIN2 isoform 2 (UniProt Q15019) it is inactive: 0.018.
With SCAMP3 isoform 2 (UniProt O14828), the log2 fold change is inactive: -0.043.
Turning to SELENOF (UniProt O60613), the log2 fold change is inactive: 0.037.
Still for that read-out and setting: in the case of SASS6 (UniProt Q6UVJ0) it was inactive: 0.028.
As to SCFD2 (UniProt Q8WU76), the log2 fold change was inactive: 0.006.
Take SEPTIN11 isoform 2 (UniProt Q9NVA2): the log2 fold change is inactive: 0.04.
On to SCLT1 (UniProt Q96NL6), for which the log2 fold change was inactive: 0.068.
The same measure, in the same setting: the figure for SCARB1 isoform 2 (UniProt Q8WTV0) is inactive: 0.014.
Still for that read-out and setting: the figure for SENP5 (UniProt Q96HI0) is inactive: 0.
On to SDHB (UniProt P21912), for which the log2 fold change was inactive: 0.086.
Turning to SCML2 (UniProt Q9UQR0), the log2 fold change was inactive: 0.019.

Compound in another assay: C1=CC2=C(C=CC(=C2)/C=C\3/C(=O)NC(=NCC4=CC=CS4)S3)N=C1
The assay is described as above. The method in brief: as §1
Take SCRIB (UniProt Q14160): the log2 fold change was inactive: -0.006.
On to SEC23A (UniProt Q15436), for which the log2 fold change is inactive: 0.037.
Regarding SEPTIN9 (UniProt Q9UHD8), the log2 fold change was inactive: 0.003.
Take SEMA4B (UniProt Q9NPR2): the log2 fold change is inactive: 0.062.
As to SDF4 (UniProt Q9BRK5), the log2 fold change is inactive: 0.006.
On to SELENOS (UniProt Q9BQE4), for which the log2 fold change was inactive: -0.046.
For the target SCFD1 (UniProt Q8WVM8), the log2 fold change is inactive: -0.001.
For the target SEC24D isoform 2 (UniProt O94855), the log2 fold change was inactive: 0.008.
Take SELENBP1 isoform 4 (UniProt Q13228): the log2 fold change is inactive: -0.006.
With SEC61A1 (UniProt P61619), the log2 fold change was inactive: 0.005.
As for SEC24C (UniProt P53992), the log2 fold change was inactive: -0.014.
Turning to SAP30BP (UniProt Q9UHR5), the log2 fold change is inactive: 0.017.
Consider SCRN3 (UniProt Q0VDG4), for which the log2 fold change is inactive: 0.003.
The same measure, in the same setting: in the case of SDSL (UniProt Q96GA7) it was inactive: -0.009; in that of SEC63 (UniProt Q9UGP8), inactive: 0.011; in that of SARG (UniProt Q9BW04), inactive: -0.114.
On the same count and under the same terms, in the case of SAAL1 (UniProt Q96ER3) it was inactive: 0.013.
SAR1B (UniProt Q9Y6B6): the log2 fold change is inactive: -0.046.
In the case of SAMSN1 (UniProt Q9NSI8), the log2 fold change was inactive: 0.
As for SDCCAG8 (UniProt Q86SQ7), the log2 fold change is inactive: -0.01.
For SCYL1 (UniProt Q96KG9), the log2 fold change is inactive: -0.024.
Regarding SDAD1 (UniProt Q9NVU7), the log2 fold change was inactive: 0.016.
For SEPTIN2 isoform 2 (UniProt Q15019), the log2 fold change was inactive: -0.001.
In the case of SCAMP3 isoform 2 (UniProt O14828), the log2 fold change is inactive: 0.104.
Take SELENOF (UniProt O60613): the log2 fold change is inactive: -0.001.
With SASS6 (UniProt Q6UVJ0), the log2 fold change is inactive: -0.019.
Consider SCFD2 (UniProt Q8WU76), for which the log2 fold change is inactive: -0.018.
Regarding SEPTIN11 isoform 2 (UniProt Q9NVA2), the log2 fold change was inactive: 0.012.
SCLT1 (UniProt Q96NL6): the log2 fold change is inactive: 0.
For the target SCARB1 isoform 2 (UniProt Q8WTV0), the log2 fold change is inactive: 0.004.
On the same count and under the same terms, in the case of SENP5 (UniProt Q96HI0) it was inactive: -0.077; in that of SDHB (UniProt P21912), inactive: -0.003; in that of SCML2 (UniProt Q9UQR0), inactive: 0.068.
